PubChem BioAssay AID540276 (National Center for Advancing Translational Sciences (NCATS), 2011)
The whole screen tested about 300,000 compounds, of which about 5,400 (1.8%) were called active. Inconclusive means that the source gave no clear call. Such entries were picked first, then a sample of the others. The call rests on the fitted dose curve; tested in HEK293 cells. Potencies beside an inconclusive call are fits to weak or partial responses and may not hold up.
On the % scale 0 is the no-effect control and ±100 the full control effect; potency means the concentration at half of the fitted maximal effect.

Experiment: qHTS for inhibitors of binding or entry into cells for Marburg Virus
Conditions: Marburg virus pseudotyped entry inhibition, cell reporter; activity change, negative = inhibition: at 37.8 µM (top of the series) unless noted
In the case of `O=C(c1ccc(Cl)cc1)N1CCC(O)(CSc2ccc(Cl)cc2)CC1`, the Potency is reported as inconclusive: 0.562 µM [inhibitor, full curve, poor fit]. With `CCC1(c2ccc(Cl)cc2)NC(=S)N(c2ccc(C)cc2)N1` (stereo unspecified) the Potency was inconclusive: 6.51 µM [activator, single point]. With `CNc1ccc(/C=C2\CSc3ccccc3C2=O)cc1[N+](=O)[O-]` the Potency was inconclusive: 5.62 µM [inhibitor, single point]. In the case of `COc1cc(C2NC(=O)N(C)C3=C2C(=O)N(c2ccccc2)C3)ccc1O` (stereo unspecified), the “activity change, negative = inhibition” value is reported as inactive: -27% [at 46.1 µM]. For `CCC(C)NC(=O)c1sc2nc(C)c(C(=O)Nc3ccc(C)cc3C)c(-c3ccc(Br)cc3)c2c1N` (stereo unspecified), the Potency was inconclusive: 5.62 µM [inhibitor, single point]. With `COc1ccc(CNC(=O)CCSCc2ccccc2Cl)c(OC)c1` the Potency was inconclusive: 0.355 µM [activator, partial curve, poor fit]. For `CCOc1ccc(NC(=O)C(C)Oc2ccccc2C(=O)Nc2ccc(C)c(Cl)c2)cc1` (stereo unspecified), the “activity change, negative = inhibition” value was inactive: -23.8%. In the case of `CCc1n(CC(O)COC2CCCCC2)c2ccccc2[n+]1C` (stereo unspecified), the “activity change, negative = inhibition” value is reported as inactive: -6.7% [at 46.1 µM]. In the case of `Cc1nc(-c2ccc(C(=O)N3CCOCC3)cc2)cs1`, the “activity change, negative = inhibition” value is reported as inactive: 29.7% [at 46.1 µM]. With `CCCn1c(=O)c2ccccc2n2c(SCCOc3ccc(Cl)cc3)nnc12` the “activity change, negative = inhibition” value was inactive: 1.18%. With `CCCCN(CC)C(=O)CSc1nc2ccccc2c(=O)n1CC1COc2ccccc2O1` (stereo unspecified) the Potency was inconclusive: 16.4 µM [inhibitor, partial curve, poor fit]. With `COc1ccc(Cc2nc(C(=O)Nc3ccccc3)cs2)cc1` the Potency was inconclusive: 15.8 µM [inhibitor, single point]. In the case of `CCn1c(C(=O)N2CCCC(C(=O)NCCc3ccc(C)cc3)C2)cc2sccc21` (stereo unspecified), the Potency is reported as inconclusive: 16.4 µM [inhibitor, single point]. With `COC(=O)/C=C1/N/C(=N\c2nc(C)cc(C)n2)N(c2ccc(Cl)cc2)C1=O` the Potency was inconclusive: 0.316 µM [inhibitor, full curve]. For `COc1cccc(C(C(=O)NC2CCCC2)N(C(=O)c2ccco2)c2ccc(-n3cnnn3)c(C)c2)c1OC` (stereo unspecified), the Potency was inconclusive: 3.16 µM [inhibitor, full curve]. With `Cc1nc2nc(SCC(=O)c3cccc([N+](=O)[O-])c3)[nH]c2cc1Br` the “activity change, negative = inhibition” value was inactive: 3.42%. In the case of `O=C(Nc1ccc2c(c1)OCO2)C1CCCN(S(=O)(=O)Cc2ccccc2)C1` (stereo unspecified), the “activity change, negative = inhibition” value is reported as inactive: 12.7%. With `CCOC(=O)c1ccc(N2CCCCC2)c(NS(=O)(=O)c2ccc(C)cc2)c1` the Potency was active: 7.94 µM. In the case of `Cc1ccc(S(=O)(=O)N2CCN(CN3C(=O)CC4(CCCC4)C3=O)CC2)cc1`, the “activity change, negative = inhibition” value is reported as inactive: 14.1%. For `O=C1NCCc2c1[nH]c1ccccc21`, the Potency was “inactive”. In the case of `O=C(CSc1ccccn1)Nc1ccc2c(c1)oc1ccccc12`, the Potency is reported as inconclusive: 2.82 µM [activator, full curve, poor fit]. For `Cc1ccc(-c2nnn(Cc3nc4ccccc4s3)n2)cc1`, the Potency was inconclusive: 16.4 µM [activator, single point]. For `CC(CCc1ccccc1)NC(=O)CN(C)Cc1ccccc1F` (stereo unspecified), the Potency was inconclusive: 17.8 µM [inhibitor, single point]. In the case of `O=C(CSc1nc2ccc(NC(=O)CSc3nnnn3-c3ccccc3)cc2s1)Nc1ccccc1`, the Potency is reported as inconclusive: 7.08 µM [inhibitor, partial curve]. For `O=C(NNC(=O)c1cc(-c2ccncc2)nc2ccccc12)c1ccccc1O`, the “activity change, negative = inhibition” value was inactive: -26.3% [at 46.1 µM]. With `CCc1cccc(CC)c1NC(=O)Cc1csc(C)n1` the “activity change, negative = inhibition” value was inactive: -18.8% [at 46.1 µM]. With `O=C(Nc1ccc2ccccc2n1)c1ccc(Cl)cc1` the Potency was inconclusive: 35.5 µM [inhibitor, single point]. With `O=C1/C(=C/c2ccncc2)SC(=S)N1Cc1ccccc1` the Potency was active: 11.2 µM. With `COc1cccc(C(=O)Nc2nc(-c3ccc(S(=O)(=O)N4CCOCC4)cc3)cs2)c1` the Potency was inconclusive: 12.6 µM [inhibitor, partial curve, poor fit]. For `COc1ccc(N2C(=O)CC(Cc3ccccc3OC)C2=O)cc1` (stereo unspecified), the Potency was inconclusive: 6.31 µM [inhibitor, single point]. With `Cc1cc2c(cc1C)C(c1cc(Br)ccc1F)CC(=O)N2` (stereo unspecified) the Potency was inconclusive: 5.01 µM [inhibitor, single point]. With `O=S(=O)(NCCCN1CCOCC1)c1ccc2c(c1)OCCO2` the Potency was inconclusive: 3.16 µM [activator, single point]. With `O=C(NCc1ccc(Cl)cc1)c1noc2c1CCCC2` the “activity change, negative = inhibition” value was inactive: 22.9%. In the case of `COc1ccc(NC(=O)CC2C(=O)NCCN2C(=O)Nc2ccc(C(F)(F)F)cc2)cc1` (stereo unspecified), the Potency is reported as inconclusive: 31.6 µM [inhibitor, partial curve, poor fit]. With `O=C(NCc1ccccc1)C(c1cccnc1)N(C(=O)c1ccccn1)c1ccccc1F` (stereo unspecified) the “activity change, negative = inhibition” value was inactive: -3.37% [at 46.1 µM]. In the case of `Cc1ccc(-n2c(=S)[nH]c3sc4c(c3c2=O)CCC4)cc1`, the Potency is reported as inconclusive: 1.26 µM [inhibitor, partial curve, poor fit]. For `Cc1cc(Nc2ccc(N(C)C)cc2)n2ncnc2n1`, the “activity change, negative = inhibition” value was inactive: -1.13% [at 46.1 µM]. For `CCC(=O)N(Cc1cc2c(C)cc(C)cc2[nH]c1=O)C1CCCCC1`, the “activity change, negative = inhibition” value was inactive: -13.3%. In the case of `Cc1ccccc1OCCn1cc(C(=S)N2CCCC2)c2ccccc21`, the Potency is reported as inconclusive: 22.4 µM [inhibitor, single point]. For `CC(C)Cc1nnc(NC(=O)Nc2ccccc2)s1`, the Potency was inconclusive: 35.5 µM [inhibitor, single point]. In the case of `CC(C)CCn1c(-c2nonc2N)nc2ccccc21`, the Potency is reported as inconclusive: 7.94 µM [inhibitor, partial curve]. For `O=C1C=C(c2ccccc2)CO1`, the Potency was inconclusive: 0.562 µM [activator, full curve, poor fit]. With `CCOc1ccc2oc(=O)cc(CN3CCN(C(=O)c4ccc(Cl)cc4)CC3)c2c1` the “activity change, negative = inhibition” value was inactive: 5.76% [at 46.1 µM]. With `CCOc1ccccc1NC(=O)NC1(C(=O)N2CCN3CCCC3C2)CCCCC1` (stereo unspecified) the “activity change, negative = inhibition” value was inactive: -6.75% [at 46.1 µM]. With `CC(C)S(=O)(=O)c1csc(NC(=O)Nc2ccc(Cl)cc2)c1Cl` the Potency was inconclusive: 35.5 µM [inhibitor, single point]. For `CCN1CCN(c2ccc(S(=O)(=O)N3CCOCC3)cc2NC(=O)c2ccc(Cl)cc2Cl)CC1`, the Potency was inconclusive: 22.4 µM [inhibitor, single point]. With `COc1ccc2nc(SCC(=O)N3CCCCCC3)c(C#N)cc2c1` the “activity change, negative = inhibition” value was inactive: 17.2%. In the case of `CC(C)(C)c1ccc(C(=O)c2cn[nH]c2-c2ccccc2O)cc1`, the Potency is reported as inconclusive: 5.62 µM [activator, single point]. For `CCC(Oc1ccccc1)C(=O)Nc1nnc(C(F)(F)F)s1` (stereo unspecified), the Potency was inconclusive: 35.5 µM [inhibitor, single point]. For `O=C(COc1ccc(Br)cc1CO)Nc1ccc(S(=O)(=O)N2CCCC2)cc1`, the Potency was inconclusive: 17.8 µM [inhibitor, single point]. For `O=C(Cn1nc(C(F)(F)F)c2c1CCCC2)Nc1ccc(F)c(Cl)c1`, the Potency was inconclusive: 15.8 µM [inhibitor, single point]. With `COc1ccccc1C1=NC(c2ccccc2)CN1c1ccccc1` (stereo unspecified) the Potency was inconclusive: 11.2 µM [inhibitor, partial curve]. With `O=C(COC(=O)CNC(=O)c1ccccc1)NCCNC(=O)COC(=O)CNC(=O)c1ccccc1` the Potency was inconclusive: 6.31 µM [activator, single point]. For `COc1ccc(C2C(C(=O)Nc3ccc4c(c3)OCCO4)c3ccccc3C(=O)N2C)cc1` (stereo unspecified), the “activity change, negative = inhibition” value was inactive: -20.2%. In the case of `CCOC(=O)c1c(N)sc(C(N)=O)c1C`, the “activity change, negative = inhibition” value is reported as inactive: 4.44% [at 46.1 µM]. In the case of `COc1ccc(/C=C/C(=O)Oc2cccc(/C=N/NC(=O)COc3c(C)cccc3C)c2)cc1`, the Potency is reported as inconclusive: 35.5 µM [inhibitor, single point]. In the case of `O=C(NN=C1CCCCCCC1)c1ccc(F)cc1`, the Potency is reported as inconclusive: 3.98 µM [inhibitor, single point]. With `COc1ccc(C2C(Oc3ccccc3)C(=O)N2c2ccc(C)c(C)c2)cc1OC` (stereo unspecified) the Potency was inconclusive: 35.5 µM [inhibitor, single point]. For `COc1cc(-c2nc3cnccn3c2Nc2ccc3c(c2)OCCO3)ccc1O`, the Potency was inconclusive: 18.3 µM [inhibitor, partial curve, poor fit]. In the case of `Cc1cc(NC(=O)c2cc(-c3ccccc3C)nc3ccccc23)no1`, the “activity change, negative = inhibition” value is reported as inactive: -27.6%. In the case of `O=C1CC(C(=O)NC2CCCCC2)C(c2ccccc2)O1` (stereo unspecified), the Potency is reported as inconclusive: 2 µM [inhibitor, full curve, poor fit]. With `COc1ccc(NC(=O)N2CCCC(C(=O)NCCc3ccccc3)C2)cc1` (stereo unspecified) the “activity change, negative = inhibition” value was inactive: 28% [at 46.1 µM]. With `Cc1cc(C(=O)CSc2ncccn2)c(C)n1-c1cccc(F)c1` the Potency was inconclusive: 0.562 µM [activator, full curve]. In the case of `COc1cccc2c3c(c(C)nc12)CCN3c1ccccc1`, the Potency is reported as inconclusive: 10 µM [inhibitor, partial curve, poor fit]. With `CCCCCN(C(=O)CCC(=O)OC(C)C(=O)c1ccc(Cl)cc1)c1c(N)n(CCCC)c(=O)[nH]c1=O` (stereo unspecified) the “activity change, negative = inhibition” value was inactive: -14.2%. With `Cc1ccc(NC(=O)CN(C)CC(=O)Nc2cccc(F)c2)cc1S(=O)(=O)N1CCCCCC1` the Potency was inconclusive: 25.1 µM [inhibitor, partial curve, poor fit]. With `Clc1ccc(C2=C3CCCCn4c(-c5ccccc5)c[n+](c43)C2)cc1` the Potency was inconclusive: 3.98 µM [inhibitor, full curve, poor fit]. With `COc1ccc(S(=O)(=O)N(CC(=O)N2CCCC2)Cc2ccccc2)cc1` the “activity change, negative = inhibition” value was inactive: -0.847%. With `Cn1c(=O)c(-c2ccccc2N)nc2ccccc21` the “activity change, negative = inhibition” value was inactive: -27.1%. In the case of `COC(=O)C(C)NC(=O)c1ccc(C(C)(C)C)cc1` (stereo unspecified), the Potency is reported as inconclusive: 6.31 µM [activator, partial curve, poor fit]. With `S=P(NCCSCc1ccccc1)(N1CC1)N1CC1` the Potency was inconclusive: 17.8 µM [inhibitor, single point].
